Laboratory results reported in paper PMC7065907.
Results are given in words; binding and its absence hold for the method and conditions named. In cells and extracts the contact can be indirect. Some entries that bind do so weakly or less than the wild type.

Amino acid sequences for entries named in this document (tags omitted).
UniProt Q9Y5T5: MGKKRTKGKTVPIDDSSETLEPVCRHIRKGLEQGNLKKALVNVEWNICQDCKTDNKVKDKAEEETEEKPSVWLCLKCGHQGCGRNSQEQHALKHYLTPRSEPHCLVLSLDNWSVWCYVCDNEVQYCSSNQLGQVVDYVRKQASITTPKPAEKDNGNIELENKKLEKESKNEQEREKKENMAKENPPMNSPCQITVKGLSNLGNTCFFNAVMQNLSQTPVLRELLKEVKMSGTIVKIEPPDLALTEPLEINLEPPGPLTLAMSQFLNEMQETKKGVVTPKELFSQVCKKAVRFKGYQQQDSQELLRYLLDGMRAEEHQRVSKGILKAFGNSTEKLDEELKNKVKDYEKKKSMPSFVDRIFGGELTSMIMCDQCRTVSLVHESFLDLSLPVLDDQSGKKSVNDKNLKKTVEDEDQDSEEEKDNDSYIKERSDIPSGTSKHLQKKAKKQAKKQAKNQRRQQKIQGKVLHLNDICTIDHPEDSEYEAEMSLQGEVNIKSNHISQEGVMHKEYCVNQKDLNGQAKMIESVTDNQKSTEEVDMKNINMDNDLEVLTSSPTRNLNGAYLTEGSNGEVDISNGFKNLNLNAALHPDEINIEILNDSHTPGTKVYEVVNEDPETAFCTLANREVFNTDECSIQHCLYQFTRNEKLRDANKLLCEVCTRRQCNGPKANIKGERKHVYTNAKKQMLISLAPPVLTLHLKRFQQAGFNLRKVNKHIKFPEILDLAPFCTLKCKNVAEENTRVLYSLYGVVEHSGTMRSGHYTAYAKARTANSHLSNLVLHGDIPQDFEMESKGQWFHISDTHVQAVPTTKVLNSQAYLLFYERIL

Tests used:
Experiment in all cases: pull-down; StrepTactin beads with lysates of tetracycline-induced HEK293 FlpIn T-REx cells expressing the tagged bait; 10 mM Tris pH 7.5, 100 mM KCl, 2 mM MgCl2, 0.5% NP-40, 1 mM DTT; 30 min at 4°C; eluates immunoblotted; in Figure 4E cells treated with control or USP16 siRNA for 72 hr
ENP1-StHA (human) = molecular target: T1, ENP1-StHA (human) (UniProt Q13895)
T1 sequence: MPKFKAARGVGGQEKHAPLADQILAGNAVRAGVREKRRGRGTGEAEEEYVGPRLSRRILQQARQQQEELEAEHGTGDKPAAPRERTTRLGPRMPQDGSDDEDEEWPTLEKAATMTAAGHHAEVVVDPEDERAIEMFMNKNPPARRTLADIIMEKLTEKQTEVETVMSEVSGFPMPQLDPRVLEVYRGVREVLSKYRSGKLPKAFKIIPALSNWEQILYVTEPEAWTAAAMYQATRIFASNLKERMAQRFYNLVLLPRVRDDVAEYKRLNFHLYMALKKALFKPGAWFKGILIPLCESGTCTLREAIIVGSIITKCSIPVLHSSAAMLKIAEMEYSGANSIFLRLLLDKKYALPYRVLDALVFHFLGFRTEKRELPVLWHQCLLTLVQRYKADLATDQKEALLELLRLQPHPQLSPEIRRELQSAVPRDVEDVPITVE

RIOK1(kd)-StHA (human) = molecular target: T2, RIOK1(kd)-StHA (human) (UniProt Q9BRS2)
T2 sequence: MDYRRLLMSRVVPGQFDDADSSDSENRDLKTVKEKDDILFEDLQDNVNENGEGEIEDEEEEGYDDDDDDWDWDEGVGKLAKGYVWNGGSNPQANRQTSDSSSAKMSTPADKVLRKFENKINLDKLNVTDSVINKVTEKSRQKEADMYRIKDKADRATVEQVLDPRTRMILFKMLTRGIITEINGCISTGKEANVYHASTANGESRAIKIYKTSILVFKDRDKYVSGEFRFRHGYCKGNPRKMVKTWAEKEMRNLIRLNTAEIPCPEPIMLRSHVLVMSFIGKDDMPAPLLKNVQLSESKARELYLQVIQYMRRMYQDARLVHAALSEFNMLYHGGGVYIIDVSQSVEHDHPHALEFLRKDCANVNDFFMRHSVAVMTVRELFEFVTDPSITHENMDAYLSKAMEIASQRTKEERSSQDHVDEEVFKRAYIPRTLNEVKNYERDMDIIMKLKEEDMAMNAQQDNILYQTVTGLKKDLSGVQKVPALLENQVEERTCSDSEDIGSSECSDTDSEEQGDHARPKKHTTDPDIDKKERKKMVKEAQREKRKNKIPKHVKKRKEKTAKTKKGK

HASt-LTV1 (human) = molecular target: T3, HASt-LTV1 (human) (UniProt Q96GA3)
T3 sequence: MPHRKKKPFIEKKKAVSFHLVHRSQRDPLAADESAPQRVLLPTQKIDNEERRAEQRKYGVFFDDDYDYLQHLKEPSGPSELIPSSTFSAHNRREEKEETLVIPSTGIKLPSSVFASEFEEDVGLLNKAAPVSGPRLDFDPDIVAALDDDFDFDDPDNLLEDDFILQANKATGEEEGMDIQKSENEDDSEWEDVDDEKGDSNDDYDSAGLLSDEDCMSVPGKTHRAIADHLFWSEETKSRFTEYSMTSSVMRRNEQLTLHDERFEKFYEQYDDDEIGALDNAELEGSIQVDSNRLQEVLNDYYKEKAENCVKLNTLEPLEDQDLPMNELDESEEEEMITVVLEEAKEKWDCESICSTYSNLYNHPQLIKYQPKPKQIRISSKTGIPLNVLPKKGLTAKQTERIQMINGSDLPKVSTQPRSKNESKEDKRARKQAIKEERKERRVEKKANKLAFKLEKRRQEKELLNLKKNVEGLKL

Measured: binding

USP16 (from UniProt Q9Y5T5 1-823) (enzyme)
binds: all assays above
